Reference: US20020002294A1, “Estrogenic compounds as antiangiogenic agents” (priority 1997, published 2002)

System: tubulin
Assay: inhibition of [3H]colchicine binding to tubulin
Conditions: 100 μM inhibitor, 1.0 μM tubulin, 2 μM [3H]colchicine, 10 min at 37° C.; ± S.D.
Method: Incubation was for 10 min. at 37° C.
Incubation was for 10 mi. at 37° C. Average values obtained in three independent experiments are presented in the table, except for 2-methoxyestrone, which was only examined twice. S.D., standard deviation.

Percentage Inhibition of colchicine binding to tubulin: 30 ± 4%
Structure (SMILES): CC/C(=C(/CC)c1ccc(O)cc1)c1ccc(O)cc1 [Diethylstilbestrol]
